These are yes or no findings as the source states them, for the method shown. Some binding calls cover weakened binding; strength is not graded here.

Binding data for 2 molecules are collected here from article PMC4920147.

For assay [1], the target named is T1, RelA (mouse (endogenous in E11)), Q04207.
T1 chain: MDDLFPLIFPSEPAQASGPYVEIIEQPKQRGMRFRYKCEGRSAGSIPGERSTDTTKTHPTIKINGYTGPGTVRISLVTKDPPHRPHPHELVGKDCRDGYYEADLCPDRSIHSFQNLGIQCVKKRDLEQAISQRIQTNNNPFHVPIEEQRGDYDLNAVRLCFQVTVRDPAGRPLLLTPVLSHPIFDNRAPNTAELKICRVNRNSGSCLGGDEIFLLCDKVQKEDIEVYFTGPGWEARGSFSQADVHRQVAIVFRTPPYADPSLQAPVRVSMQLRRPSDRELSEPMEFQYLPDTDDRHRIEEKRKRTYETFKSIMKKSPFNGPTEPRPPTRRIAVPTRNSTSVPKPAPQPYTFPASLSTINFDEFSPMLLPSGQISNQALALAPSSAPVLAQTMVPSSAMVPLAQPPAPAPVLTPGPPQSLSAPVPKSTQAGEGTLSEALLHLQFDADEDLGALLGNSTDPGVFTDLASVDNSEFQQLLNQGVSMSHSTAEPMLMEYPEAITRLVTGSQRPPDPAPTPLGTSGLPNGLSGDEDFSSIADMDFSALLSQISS
Put plainly: native gel or EMSA; supershift: nuclear extracts of TNFα-treated E11 podocytes incubated with antibodies against RelA, p50 or p52 prior to addition of radiolabelled κB DNA probe (HIV LTR or CD80 promoter). The note with it: remark: other sources report otherwise. (In EMSA bound probe runs differently from free probe, usually more slowly.)

Assay [2] has as its target RelA (mouse (endogenous in E11)) (UniProt Q04207). The assay is described as above.

B1: p50, P25799 1-431 (protein)
chain: MADDDPYGTGQMFHLNTALTHSIFNAELYSPEIPLSTDGPYLQILEQPKQRGFRFRYVCEGPSHGGLPGASSEKNKKSYPQVKICNYVGPAKVIVQLVTNGKNIHLHAHSLVGKHCEDGVCTVTAGPKDMVVGFANLGILHVTKKKVFETLEARMTEACIRGYNPGLLVHSDLAYLQAEGGGDRQLTDREKEIIRQAAVQQTKEMDLSVVRLMFTAFLPDSTGSFTRRLEPVVSDAIYDSKAPNASNLKIVRMDRTAGCVTGGEEIYLLCDKVQKDDIQIRFYEEEENGGVWEGFGDFSPTDVHRQFAIVFKTPKYKDVNITKPASVFVQLRRKSDLETSEPKPFLYYPEIKDKEEVQRKRQKLMPNFSDSFGGGSGAGAGGGGMFGSGGGGGSTGSPGPGYGYSNYGFPPYGGITFHPGVTKSNAGVTHG
On to B1, for which the binding result in assay [1] is recorded as “binds”.

B2: p52 (protein, UniProt Q9WTK5 1-454)
chain: MDNCYDPGLDGIPEYDDFEFSPSIVEPKDPAPETADGPYLVIVEQPKQRGFRFRYGCEGPSHGGLPGASSEKGRKTYPTVKICNYEGPAKIEVDLVTHSDPPRAHAHSLVGKQCSELGVCAVSVGPKDMTAQFNNLGVLHVTKKNMMEIMIQKLQRQRLRSKPQGLTEAERRELEQEAKELKKVMDLSIVRLRFSAFLRASDGSFSLPLKPVISQPIHDSKSPGASNLKISRMDKTAGSVRGGDEVYLLCDKVQKDDIEVRFYEDDENGWQAFGDFSPTDVHKQYAIVFRTPPYHKMKIERPVTVFLQLKRKRGGDVSDSKQFTYYPLVEDKEEVQRKRRKALPTFSQPFGGGSHMGGGSGGSAGGYGGAGGGGSLGFFSSSLAYNPYQSGAAPMGCYPGGGGGAQMAGSRRDTDAGEGAEEPRTPPEAPQGEPQALDTLQRAREYNARLFGLA
B2: the binding entry in assay [2] is “binds”.
